Test results as given in the supplement of paper PMC10735217.
The other results are listed elsewhere or left out. Repeats in this data set agree poorly, so a single value says little.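 The human kidney-derived cells carry a stably integrated construct of eight TEAD-binding elements driving luciferase, read by luminescence in a drug-repurposing library screen. A compound counts as a hit when its signal is more than five robust Z scores above the plate mean.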

System: HEK293A TEAD-LUC reporter
Experiment: TEAD-luciferase reporter activity (YAP activation), robust Z score vs plate; higher = stronger YAP/TEAD activation
Details: 24 h

Row | Compound | TEAD-luciferase reporter activity (compound concentration: 200 nM) | TEAD-luciferase reporter activity (compound concentration: 2 uM) | TEAD-luciferase reporter activity (compound concentration: 10 uM)
1 | CCN(CC)CC(O)CNc1c2ccc(Cl)cc2nc2ccc(OC)cc12 (stereo not given) | inactive: -0.853 | active: 7.3 | inactive: -0.0642
2 | CSCC[C@H](NC(=O)[C@H](Cc1ccc(OS(=O)(=O)O)cc1)NC(=O)[C@@H](N)CC(=O)O)C(=O)NCC(=O)N[C@@H](Cc1c[nH]c2ccccc12)C(=O)N[C@@H](CCSC)C(=O)N[C@@H](CC(=O)O)C(=O)N[C@@H](Cc1ccccc1)C(N)=O [Sincalide] | inactive: 0.408 | inactive: -1.08 | inactive: 3.94
3 | CC(=N)NCCSCC[C@H](N)C(=O)O | inactive: -0.721 | inactive: 0.525 | inactive: -1.68
4 | CO[C@H]1/C=C/O[C@@]2(C)Oc3c(C)c(O)c4c(O)c(c(N5CCN(Cc6c(C)cc(C)cc6C)CC5)c(O)c4c3C2=O)NC(=O)/C(C)=C\C=C\[C@H](C)[C@H](O)[C@@H](C)[C@@H](O)[C@@H](C)[C@H](OC(C)=O)[C@@H]1C | inactive: -1.29 | inactive: -1.21 | inactive: -0.605
5 | CC(=O)Nc1ccc(S(=O)(=O)Nc2ccc([N+](=O)[O-])cc2)cc1 | inactive: -2.14 | inactive: -1.1 | inactive: -2.65
6 | CC1CCc2c(N3CCC(O)CC3)c(F)cc3c(=O)c(C(=O)O)cn1c23 (stereo not given) [nadifloxacin] | inactive: -0.332 | inactive: 1.26 | inactive: -0.488
7 | COc1ccc(-c2ccc(OCc3cc(C(=O)NS(=O)(=O)c4ccccc4C)oc3C)cc2)nc1 | inactive: -0.387 | inactive: -0.224 | inactive: 2.49
8 | [Ca+2] [Calcium Bromide] | inactive: -0.549 |  | inactive: 1.64
9 | CO[C@H]1C[C@@H](O[C@H]2[C@H](C)O[C@H](O[C@@H]3/C(C)=C/CC4C[C@@H](C[C@]5(C=C[C@H](C)[C@@H](C6CCCCC6)O5)O4)OC(=O)[C@@H]4C=C(C)[C@@H](O)[C@H]5OC/C(=C\C=C\[C@@H]3C)[C@]54O)C[C@@H]2OC)O[C@@H](C)[C@@H]1O | inactive: -1.56 | inactive: -0.908 | inactive: 2.41
10 | CNC(C(=O)O)C(O)c1ccc(O)c(O)c1 (stereo not given) | inactive: -0.00875 | inactive: -2.35 | inactive: -0.112
11 | CC(C)(CO)c1cc2cc(NC(=O)C3(c4ccc5c(c4)OC(F)(F)O5)CC3)c(F)cc2n1C[C@@H](O)CO | inactive: 0.825 | inactive: -1.24 | active: 6.64
12 | CC1CCC(C(C)C)C(OC(=O)c2cccnc2)C1 (stereo not given) | inactive: 1.86 | inactive: -0.994 | inactive: 0.0306
13 | O=C1c2ccccc2OCN1CCO | inactive: 0.206 | inactive: -0.614 | inactive: 0.969
14 | Clc1ccc(OCC2=NCCc3ccccc32)cc1 | inactive: -0.448 | inactive: 0.901 | inactive: 0.803
15 | c1cnn(-c2cc(-n3cccn3)ncn2)c1 | inactive: -1.27 | inactive: -0.768 | inactive: 0.137
16 | CCN(CC)CCNC(=O)c1ccc(NC(=O)COc2cc(C)ccc2C)cc1OC | inactive: -0.0382 | inactive: -0.55 | inactive: -0.731
17 | CCNC(=O)/C=C/c1cccc(Br)c1 | inactive: 0.353 |  | inactive: 0.119
18 | CCNC(=O)/C=C/c1cccc(Br)c1 [Cinromide] |  | inactive: 0.809 | 
19 | Cc1cc(=O)c(N)nn1-c1cccc(C(F)(F)F)c1 | inactive: -0.51 | inactive: 0.0512 | inactive: 0.604
20 | CN1CCN(C2=Cc3ccccc3/C(=C/C#N)c3ccc(Cl)cc32)CC1 | inactive: 0.449 | inactive: 2.02 | inactive: 3.2
21 | CCCOc1ccc(S(=O)(=O)N2CCCN(CCO)CC2)cc1-c1nc2c([nH]1)c1nncn1c(=O)n2CCC | inactive: -1.24 | inactive: 0.316 | inactive: -0.114
22 | CCCCCCCCCCCCCCNC(=O)N[C@H](CC(=O)[O-])C[N+](C)(C)C | inactive: -2.43 | inactive: 0.346 | inactive: -0.289
23 | Cc1ccc(S(=O)(=O)N(Cl)Cl)cc1 | inactive: 0.31 | inactive: -1.53 | inactive: 0.186
24 | O=[N+]([O-])c1ccc(-c2nc3ccccc3[nH]2)o1 | inactive: 0.319 | inactive: 0.0133 | inactive: 2.71
25 | O=C(NCc1ccccn1)Nc1nnc(-c2ccco2)o1 | inactive: -0.859 | inactive: -0.584 | inactive: 1.17
26 | Cc1cnc(NCCCN(C)C)c2c1[nH]c1ccc3cc(O)ccc3c12 | inactive: -0.119 | inactive: 1.74 | inactive: -1.23
27 | CN(C)Cc1ccc(CSCCN/C(=C/[N+](=O)[O-])NCc2ccc3c(c2)OCO3)o1 | inactive: 0.778 | inactive: -0.859 | inactive: 1.22
28 | CS(=O)(=O)Nc1ccc(C(O)CN2CCN(c3ccncc3)CC2)cc1 (stereo not given) | inactive: 0.921 | inactive: -0.943 | inactive: -1.08

Some of the entries so far, tab-delimited.
Row	Compound	TEAD-luciferase reporter activity (compound concentration: 200 nM)	TEAD-luciferase reporter activity (compound concentration: 2 uM)	TEAD-luciferase reporter activity (compound concentration: 10 uM)
6	CC1CCc2c(N3CCC(O)CC3)c(F)cc3c(=O)c(C(=O)O)cn1c23 (stereo not given) [nadifloxacin]	inactive: -0.332	inactive: 1.26	inactive: -0.488
15	c1cnn(-c2cc(-n3cccn3)ncn2)c1	inactive: -1.27	inactive: -0.768	inactive: 0.137
